The values below come from paper PMC7819943, “Rice protein-binding microarrays: a tool to detect cis-acting elements near promoter regions in rice”.

This is one part of the list.

For the assay, the target named is T1, OsSMF1 (Oryza sativa, UniProt Q6ZLB0 1-436).
T1 sequence: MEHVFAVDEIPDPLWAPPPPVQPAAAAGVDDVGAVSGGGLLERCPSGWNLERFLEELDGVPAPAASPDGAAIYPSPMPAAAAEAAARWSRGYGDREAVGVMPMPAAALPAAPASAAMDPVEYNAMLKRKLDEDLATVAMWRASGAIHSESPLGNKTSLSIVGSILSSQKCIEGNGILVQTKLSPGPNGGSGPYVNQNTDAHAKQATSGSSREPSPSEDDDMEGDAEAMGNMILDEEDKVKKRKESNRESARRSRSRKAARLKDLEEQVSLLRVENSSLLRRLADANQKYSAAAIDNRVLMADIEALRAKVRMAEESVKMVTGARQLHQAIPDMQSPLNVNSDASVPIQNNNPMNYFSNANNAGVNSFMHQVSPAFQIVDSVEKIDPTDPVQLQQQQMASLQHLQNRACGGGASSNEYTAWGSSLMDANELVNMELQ
The assay is described as follows: protein-binding microarray (RPBM); PBS, 2% BSA, 51.3 ng/ul salmon testes DNA, 50 uM zinc acetate, 200 nM TF, 25 C, 1 h; high values mean tight binding. Particulars: protein: recombinant; tags: N-terminal polyhistidine and DsRed monomer fusion (pET32a); chain copies: 2; label: CyDye5-dUTP incorporated in the synthesized complementary strand; 3' TTTTT single-stranded linker to array surface; dsDNA, one strand shown. The method, boiled down: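 The binding signal for each feature is its fluorescence intensity in arbitrary units. An Axon 4000B scanner was used to read a custom Agilent array that had been made double-stranded with Cy5-dUTP primer extension, blocked with 2% BSA, incubated at 25 °C for 1 h with 200 nM protein in PBS, 2% BSA, salmon testes DNA and 50 µM zinc acetate, and washed. The protein was an N-terminal polyhistidine–DsRed transcription factor fusion from E. coli BL21-CodonPlus, purified on Ni–NTA.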
With “TTTGGTCTCTAAACTTTAGATGTGTAAACTTGAGATGTATCGGAGTCACCTAGTGCAG”, the binding signal is 3780 fluorescence intensity (a.u.). In the case of “TCGATTTACTGACAAAATTGTATCCCAAAACAATGGCTTACGGAGTCACCTAGTGCAG” it was 33700 fluorescence intensity (a.u.); in that of “TCCCTACCAGAAGACATGTCAGCCTCTACGCAACCATTACCGGAGTCACCTAGTGCAG”, 6870 fluorescence intensity (a.u.).

Regarding “CCGGGCCACCAGCTCCTCGCCGCCACGACACCATGAGCCGCGGAGTCACCTAGTGCAG”, the binding signal was 6130 fluorescence intensity (a.u.). In the case of “GGCGGGCGGCTAGTCGTACGTCGCAAGCTACTCGACACGTCGGAGTCACCTAGTGCAG” it was 4060 fluorescence intensity (a.u.). Regarding “GTATATTCTACTCGCGTCACTCACCCACTGTGTGACTGACCGGAGTCACCTAGTGCAG”, the binding signal was 6080 fluorescence intensity (a.u.). Take “CCTCGCCGTTGTGTGAATGCGCACGTGGCTGGTACAACGACGGAGTCACCTAGTGCAG”: the binding signal was 6810 fluorescence intensity (a.u.). In the case of “TCCCCTTCACCGCAACTTCGGCGAAGTCAAGAAGGAGTAGCGGAGTCACCTAGTGCAG” it was 43800 fluorescence intensity (a.u.); in that of “AGGACATGTTCACGGCCGGGACGGACACGTCGTCGATCATCGGAGTCACCTAGTGCAG”, 6440 fluorescence intensity (a.u.); in that of “TATATTTACTCACATCATACCACATCAATGTTTGTAATAGCGGAGTCACCTAGTGCAG”, 4260 fluorescence intensity (a.u.). In the case of “TATCCTGATGACGGTGCATGTATGCATGCATGGATATGGACGGAGTCACCTAGTGCAG”, the binding signal was 6130 fluorescence intensity (a.u.). Turning to “GAGAGAAGGGGTGAGGAGAGTTTAGGGGTGGAGAGATTATCGGAGTCACCTAGTGCAG”, the binding signal is 33900 fluorescence intensity (a.u.).

For the sequence “CCACTCATCCAGCAACTGTTTCTCTGTGTACCGTTTCTCTCGGAGTCACCTAGTGCAG”, the binding signal is 3170 fluorescence intensity (a.u.).

Turning to “GCGCTGCGGGCCGCGCGCGTCCACGCCACCGACCCGCACCCGGAGTCACCTAGTGCAG”, the binding signal was 4090 fluorescence intensity (a.u.).

Take “CCAGAGGCAGCACACCATCCTGCCACGTGGCTACCCACCACGGAGTCACCTAGTGCAG”: the binding signal is 30400 fluorescence intensity (a.u.). With “TGCAGAGCTCCTCTGCAAACTCATCGGCCACGTCAAGCCCCGGAGTCACCTAGTGCAG”, the binding signal was 10400 fluorescence intensity (a.u.). In the case of “TCTAGCAGTATAATTTGGCTCACTTACAGGCTTATACACACGGAGTCACCTAGTGCAG” it was 28200 fluorescence intensity (a.u.); in that of “GCGTTTCGGACACATTAAGGGCCCATTTGATTTGTAGGAACGGAGTCACCTAGTGCAG”, 24700 fluorescence intensity (a.u.). As for “CTAGTGAGGGGCGGGCGGGCGGGCAAGGGGAGCGGATGGGCGGAGTCACCTAGTGCAG”, the binding signal is 5580 fluorescence intensity (a.u.).

Turning to “GCACCAACCATCTCACCCGTCCGACGTGGCAGCAGCAACCCGGAGTCACCTAGTGCAG”, the binding signal is 5120 fluorescence intensity (a.u.).

Take “CACTTCAATGTACATGAATCTAAGCAAGCCAAATTTTCAACGGAGTCACCTAGTGCAG”: the binding signal is 3360 fluorescence intensity (a.u.). In the case of “TTGACGTCACACGTCAGGCTGGAGGTAATTCAACCAGTGCCGGAGTCACCTAGTGCAG” it was 9260 fluorescence intensity (a.u.); in that of “AATCAAATGCACATCATCAGTCATCACGTATTCACTTACACGGAGTCACCTAGTGCAG”, 3510 fluorescence intensity (a.u.). The figure for “GACAACACAGACTGTACGGAAATTGTTGGTGACATATCCCCGGAGTCACCTAGTGCAG” is 3770 fluorescence intensity (a.u.); for “ATGCCGGGCATTTACAATGACTGAAAACGATTGCAAAATTCGGAGTCACCTAGTGCAG” it is 4670 fluorescence intensity (a.u.). In the case of “ATCTAGCAGCAGCAGTGGTAGTAGCTAGCAGCGTCAGCGTCGGAGTCACCTAGTGCAG”, the binding signal was 5190 fluorescence intensity (a.u.).

On to “GAGAGAGGTCCGTCGCTGCTCACGAGTCATGAGTAGGGTGCGGAGTCACCTAGTGCAG”, for which the binding signal was 3450 fluorescence intensity (a.u.). With “TCTAAATGTAATGTCGCAAACTTATTTCATGGGCCAAGAACGGAGTCACCTAGTGCAG”, the binding signal is 17900 fluorescence intensity (a.u.). For “TTGGAGACCGAGAGGAGGAACTGACCAGCCAGCGTCTGAACGGAGTCACCTAGTGCAG”, the binding signal was 20800 fluorescence intensity (a.u.). The figure for “ATGCTGCCATGTGGTCAGCTTTTGTCGATCGATTACTTGGCGGAGTCACCTAGTGCAG” is 10100 fluorescence intensity (a.u.).

Consider “TCTGCATCTGATGTACACGCAGATGAAGATGCGCCGGCACCGGAGTCACCTAGTGCAG”, for which the binding signal is 3220 fluorescence intensity (a.u.).

In the case of “CCATGGAATGATGTGACATACTGACATGGCATCTATCTGCCGGAGTCACCTAGTGCAG”, the binding signal is 5630 fluorescence intensity (a.u.). For the sequence “AGCTCTTCGCGGCAAAAGAGATCGCCGGCTCGCCGGCCGGCGGAGTCACCTAGTGCAG”, the binding signal was 3820 fluorescence intensity (a.u.). As for “ACTATGATATTGCAAACCGCGAGGTACTTGATTCATTACTCGGAGTCACCTAGTGCAG”, the binding signal is 3140 fluorescence intensity (a.u.).

On to “ATTTAGCAACACATAATCAATCATCCACAGACTTGATTATCGGAGTCACCTAGTGCAG”, for which the binding signal was 3400 fluorescence intensity (a.u.). The figure for “AGCCACCATATCAAGCTGCCACCGTCACCTCCCTTGCCAGCGGAGTCACCTAGTGCAG” is 6110 fluorescence intensity (a.u.). For “TGCTATAAATTTCCGTGATGCATACATTACGTCTGTTTCTCGGAGTCACCTAGTGCAG”, the binding signal was 4120 fluorescence intensity (a.u.).

Take “CTTATCAAGCACATAATGTTGGAAAATTAAACAAGGAATCCGGAGTCACCTAGTGCAG”: the binding signal was 29000 fluorescence intensity (a.u.). The figure for “TCTGTGGGTTAGGGATGGTTATGTCTTATATTTTGGAATGCGGAGTCACCTAGTGCAG” is 3680 fluorescence intensity (a.u.).

Take “TGTTCATTGGTGAAGTTGTTGTCATTTGGTGATTGGGTTGCGGAGTCACCTAGTGCAG”: the binding signal was 4540 fluorescence intensity (a.u.). Turning to “TTGACTTGGTGAGACAATGCTGGCGTGGCGTCCAATTAAACGGAGTCACCTAGTGCAG”, the binding signal was 4920 fluorescence intensity (a.u.).

“TTCTCCCGTATCTGTAGAACGGCAGTAGCAAGTTGAAGAGCGGAGTCACCTAGTGCAG”: the binding signal is 3380 fluorescence intensity (a.u.).
